Source: PubChem BioAssay AID493014 (National Center for Advancing Translational Sciences (NCATS), 2011)
The list shows a part of the results. Further columns of the screen follow, without active or inactive calls. Most of these compounds were active or inconclusive in the main read-out, so they are no random draw. Potencies come from curve fits of mixed quality, noted in brackets.

Assay: qHTS Assay to Find Inhibitors of Chronic Active B-Cell Receptor Signaling
Conditions: ABC-DLBCL IkBa-CBG/CBR reporter, luminescence ratio (green luciferase fused to IkBa over red control in TMD8 lymphoma cells), 4 h
Method in brief: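 Doxycycline induced both beetle luciferases in TMD8 lymphoma cells; IKK-driven degradation limits the IkappaBalpha-fused green signal, while red luminescence normalises for cell number and nonspecific effects. Compounds tested up to 46 uM, 4 hrs.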

[1] = measured here: CBR red luminescence, cell number
[2] = measured here: IkBa-CBG green luminescence

Structure (SMILES)	AC50 [1]	AC50 [2]
Cc1[nH]c(-c2ccccn2)nc(=S)c1Cl	35.5 µM [rising, single point]	
COc1ccc(CN(C)S(=O)(=O)c2nnc(NC(=O)c3ccccc3OC)s2)cc1OC	12.6 µM [rising, single point]	
COc1ccc(/C=C(/NC(=O)c2ccccc2)C(=O)N2CCCCC2)cc1OC	5.62 µM [rising, single point]	
CCOC(=S)SCC(=O)Nc1nc(C)c(C)s1	2.82 µM [falling, full curve]	10 µM [rising, partial curve, poor fit]
Cc1ccc(NC(=O)CCC(=O)NNC(=O)Cc2ccccc2)cc1C	35.5 µM [rising, single point]	
Cc1cccc(NC(=O)Nc2cnccn2)c1	35.5 µM [falling, single point]	
CC(=O)COc1ccc2c(c1C)O/C(=C\c1ccco1)C2=O	0.282 µM [rising, full curve]	
Cc1nnc(Oc2ccccc2)c2ccccc12	1.12 µM [rising, full curve, poor fit]	
COCCN(CC(=O)Nc1cccc(C)c1C)C(=O)c1cc(S(=O)(=O)N2CCCC2)ccc1C	25.9 µM [rising, partial curve, poor fit]	
COC(=O)c1cccc(NC(=O)CSc2nnc(COc3ccc(C#N)cc3)n2-c2ccccc2)c1	2.91 µM [falling, full curve, poor fit]	
COc1ccc(N(Cc2cc(=O)[nH]c3ccccc23)C(=O)CCl)cc1	17.8 µM [falling, partial curve]	
Cc1c(C(=O)N2CCC(C)CC2)oc2ccc(S(=O)(=O)N3CCC4(CC3)OCCO4)cc12	11.6 µM [falling, partial curve, poor fit]	
CCS(=O)(=O)c1ccc2oc(Nc3cc(C)cc(C)c3)nc2c1	1.58 µM [rising, full curve]	
COc1ccccc1NC(=O)C(C)N1CCN(C/C=C/c2ccccc2)CC1 (stereo unspecified)	15.8 µM [falling, single point]	
Brc1ccc(-c2csc(N/N=C/c3cccnc3)n2)cc1	0.112 µM [rising, full curve, poor fit]	
O=C(CCC(=O)N1CCN(S(=O)(=O)c2ccccc2Cl)CC1)c1ccccc1	11.6 µM [rising, single point]	
Cc1cc(NC(=O)c2cccnc2)ccc1NC(=O)c1cc2ccccc2o1	35.5 µM [falling, single point]	
COc1ccc(C(=O)Nc2cnc3sc(C)nn3c2=O)cc1	35.5 µM [falling, single point]	
CCCC(=O)Nc1cccc(-c2nc3ccccc3o2)c1	20.6 µM [rising, single point]	
COC(=O)c1ccc2c(c1)c(C#Cc1ccccc1)c(-c1ccccc1)n2C	3.66 µM [rising, partial curve]	
O=C(NC(=S)Nc1ccc(Cc2ccncc2)cc1)c1ccccc1	20.6 µM [falling, partial curve, poor fit]	

Structure (SMILES)	AC50 [1]	AC50 [2]
CC1(C)Oc2ccc(C(=O)N3CCc4ccccc43)cc2N(CC(=O)N2CCCC2)C1=O	7.08 µM [rising, full curve, poor fit]	
O=c1[nH]c(/C=C/c2ccccc2[N+](=O)[O-])nc2ccccc12	7.31 µM [falling, partial curve, poor fit]	
COCCNC(=O)c1ccc2c3n(nc2c1)-c1ccc(Cl)cc1CO3	17.8 µM [falling, partial curve, poor fit]	
CCOC(=O)C1CCN(C(=O)CCn2c(=O)[nH]c3ccccc3c2=O)CC1	4.47 µM [rising, single point]	
COc1ccc(NC(=O)Nc2cccc3c2O[C@H](CN(C)C(=O)Nc2ccccc2)[C@@H](C)CN([C@H](C)CO)C3=O)cc1	25.9 µM [rising, single point]	
Cc1ccc(C(=O)N2CCN(Cc3ccc4c(c3)OCO4)CC2)cc1S(=O)(=O)N1CCOCC1	35.5 µM [falling, single point]	
O=C(Nc1ncnc2c1C(c1ccccc1)c1c(ccc3ccccc13)O2)c1ccccc1 (stereo unspecified)	18.4 µM [falling, partial curve, poor fit]	
O=C(NCc1ccco1)c1ccc(-c2csnn2)cc1	35.5 µM [falling, single point]	
CC(Sc1nc(=O)cc(N)n1CCc1ccccc1)C(=O)NCc1ccccc1 (stereo unspecified)	14.1 µM [falling, partial curve, poor fit]	
O=C(Nc1cc([N+](=O)[O-])ccc1F)c1cccs1	14.6 µM [falling, partial curve, poor fit]	
O=C(c1cc(-c2cccs2)nc2ccccc12)N1CCN(c2ccccc2O)CC1	12.6 µM [falling, single point]	
CC(=O)Nc1ccc(S(=O)(=O)NCC(=O)OCc2ccccc2)cc1	18.4 µM [rising, partial curve]	
O=C(Nc1cccc(S(=O)(=O)NC2=NCCCCC2)c1)c1cc(-c2ccccc2Cl)nc2ccccc12	23.1 µM [rising, single point]	
COc1cccc(NC(=O)CN2C=NS(=O)(=O)c3ccccc32)c1	3.16 µM [falling, partial curve]	
Oc1ccccc1CNc1cnc2ccccc2c1	32.6 µM [falling, single point]	
COc1cccc(/C=C(\C)C(=O)c2c(C)cc(C)[nH]c2=O)c1OC	35.5 µM [rising, single point]	
Cc1ccc(N(C)C(=O)N2CCN(S(=O)(=O)c3ccc(C)c(C)c3)CC2)cc1	6.51 µM [falling, single point]	
O=C(Nc1cccc(-c2ccc(N3CCCCC3)nn2)c1)c1ccc(Br)o1	20.6 µM [falling, single point]	
CCS(=O)(=O)NCCc1sc2nc(-c3ccc(OC)cc3)nn2c1C	8.91 µM [rising, partial curve, poor fit]	
Cc1ccccc1-c1nsc(SCC(=O)c2ccc(Cl)cc2)n1	20.6 µM [rising, single point]	
C[C@]12CCC(=O)C=C1CC[C@@H]1[C@@H]2CC[C@@]2(C)[C@H]1CC[C@]2(O)C(=O)CO	25.1 µM [rising, partial curve, poor fit]	

Structures listed so far that contain a furan ring, fused or not, in the order listed:
Structure (SMILES)	AC50 [1]	AC50 [2]
CC(=O)COc1ccc2c(c1C)O/C(=C\c1ccco1)C2=O	0.282 µM [rising, full curve]	
Cc1c(C(=O)N2CCC(C)CC2)oc2ccc(S(=O)(=O)N3CCC4(CC3)OCCO4)cc12	11.6 µM [falling, partial curve, poor fit]	
Cc1cc(NC(=O)c2cccnc2)ccc1NC(=O)c1cc2ccccc2o1	35.5 µM [falling, single point]	
O=C(NCc1ccco1)c1ccc(-c2csnn2)cc1	35.5 µM [falling, single point]	
O=C(Nc1cccc(-c2ccc(N3CCCCC3)nn2)c1)c1ccc(Br)o1	20.6 µM [falling, single point]	

(continued)

Structure (SMILES)	AC50 [1]	AC50 [2]
COc1cccc(C(=O)/C=C/Nc2cccc(O)c2)c1	18.4 µM [falling, single point]	
CCOc1ccc(C(=O)Nc2cc(-c3nc4ccccc4[nH]3)ccc2C)cc1[N+](=O)[O-]	1.12 µM [rising, full curve]	1.41 µM [falling, partial curve, poor fit]
CCOC(=O)c1sc(N2C(=O)C(O)=C(C(=O)c3ccco3)C2c2ccc(C)o2)nc1C (stereo unspecified)	0.141 µM [falling, full curve, poor fit]	
Cc1sc2ncnc(N/N=C/c3ccc(O)cc3)c2c1C	3.66 µM [falling, full curve]	
O=C1NC(=O)/C(=C\c2ccc(Br)o2)S1	31.6 µM [rising, partial curve, poor fit]	
O=C(CNS(=O)(=O)c1c(Cl)cccc1Cl)OCc1csc(-c2ccccc2)n1	20.6 µM [rising, single point]	
Cc1ccccc1NC(=S)N/N=C/C(C)c1ccccc1 (stereo unspecified)	12.6 µM [falling, single point]	
O=C(CSC(=S)N1CCCCC1)Nc1ncc2c(n1)CC(c1ccco1)CC2=O (stereo unspecified)	7.08 µM [rising, partial curve, poor fit]	
COc1ccc(C(C(=O)NCC2CCCO2)N(C(=O)CNC(=O)c2cccs2)c2ccc(C(C)=O)cc2)cc1OC (stereo unspecified)	7.08 µM [rising, partial curve, poor fit]	
CC(=C/c1ccccc1)/C=N/NC(=O)c1ccccn1	10 µM [falling, partial curve]	
N/C(=N\OCc1ccc([N+](=O)[O-])cc1)c1ccccn1	5.01 µM [falling, partial curve]	
O=C(NCc1ccc(Cl)cc1)c1cc(=O)[nH]c2ccccc12	35.5 µM [rising, single point]	
COc1ccc(C(=O)Nc2sc3c(c2C#N)CCN(C(C)=O)C3)cc1	10 µM [rising, partial curve, poor fit]	25.1 µM [falling, single point]
CC(C)[N+]1(C)[C@@H]2CC[C@@H]1CC(OC(=O)C(CO)c1ccccc1)C2 (stereo partly specified)	0.092 µM [falling, full curve, poor fit]	
C=CCN1C(=O)N(c2ccc(F)cc2)C(=O)C1CC(=O)Nc1ccc(Cl)cc1 (stereo unspecified)	35.5 µM [falling, single point]	
COc1cccc(/C=C/C(=O)c2ccc3c(c2)OCCO3)c1OC	25.1 µM [falling, single point]	
CC(C)c1cc(C(=O)N2CCCC(C(=O)c3ccc4ccccc4c3)C2)on1 (stereo unspecified)	2 µM [rising, partial curve]	
COc1ccc(C2C(C#N)=C(N)Oc3cc(C)[nH]c(=O)c32)c(OC)c1OC (stereo unspecified)	4.11 µM [falling, single point]	
Cc1cc(C(=O)NNc2ccc(C)c(C)c2)no1	35.5 µM [falling, single point]	
Nc1nnc(SCC(=O)OCC(=O)c2ccccc2Br)s1	5.01 µM [falling, single point]	
Cc1ccc(S(=O)(=O)CCC(=O)c2ccc(O)cc2O)cc1	35.5 µM [falling, single point]	
